PubChem BioAssay AID504793, Drosophila RNAi Screening Center | 2011
In all, the deposit lists about 23,000 reagents; below is a random part of those that have a named target and a result. Of all reagents, 62 (0.27%) were called active. 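Calls come from follow-up tests whose scores are not deposited, so confirmed genes may have low counts here; counts are not normalised per plate.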 Raw values are not corrected between plates. A plus sign joins genes that one reagent is predicted to hit.

Purpose: 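Whole-genome screen for parts of the DNA damage checkpoint at G2/M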 (primary screen)
System: Drosophila S2R+ cells
Knock-down reagent: long dsRNA against Drosophila genes, about 0.25 µg dsRNA per well
Time to read-out: 4 days of dsRNA, then 4 hours of drug before read-out
Challenge: doxorubicin 0.5 µM for 4 hours to cause double-strand breaks, in cells also given a low, harmless dose of dsRNA against nbs to sensitise the assay
Measurement: 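Per-well count of mitotic cells stained for phospho-histone H3 after doxorubicin exposure, used as mitotic index; counts are raw and not normalised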
Direction: mitotic cells: higher = more cells in mitosis, weaker G2 arrest
Active means: 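a call needs confirmation in secondary tests, with other dsRNAs and a check of mitotic timing without damage, not just a high primary count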
Meaning of the calls: active = confirmed in follow-up tests; inactive = not confirmed

gene	DRSC id	mitotic cells, replicate 1	Call
Clk (Clock)	DRSC11117	4	inactive
laf (labial associated factor)	DRSC12246	12	inactive
Ebp (Ejaculatory bulb protein)	DRSC04048	6	inactive
Ebp (Ejaculatory bulb protein)	DRSC27342	7	inactive
CG7675	DRSC16280	10	inactive
CG7675	DRSC26897	5	inactive
CG13875	DRSC08345	5	inactive
CG18563	DRSC02676	5	inactive
Krn (Keren)	DRSC11202	4	inactive
CG16826	DRSC02527	4	inactive
Pcyt2 (Phosphocholine cytidylyltransferase 2)	DRSC08531	7	inactive
CAH3 (Carbonic anhydrase 3)	DRSC17776	9	inactive
fd96Ca (forkhead domain 96Ca)	DRSC16946	12	inactive
fd96Ca (forkhead domain 96Ca)	DRSC23974	4	inactive
CG34248	DRSC09426	1	inactive
CG9436	DRSC05005	9	inactive
tub (tube)	DRSC12389	11	inactive
tub (tube)	DRSC22800	9	inactive
Pif1A (PFTAIRE-interacting factor 1A)	DRSC14383	6	inactive
Rab35	DRSC20691	5	inactive
Rab35	DRSC26739	6	inactive
CG8112	DRSC16377	3	inactive
CG4053	DRSC15538	13	inactive
CG4053	DRSC29364	2	inactive
Ncc69 (sodium chloride cotransporter 69)	DRSC10412	2	inactive
Ncc69 (sodium chloride cotransporter 69)	DRSC10413	8	inactive
Ncc69 (sodium chloride cotransporter 69)	DRSC23572	6	inactive
CkIIbeta2 (Casein kinase II beta2 subunit)	DRSC07361	5	inactive
CG31229	DRSC13309	4	inactive
RecQ5 (RecQ5 helicase)	DRSC11266	3	inactive
CG2747	DRSC15450	5	inactive
CG17264	DRSC00500	9	inactive
CG17264	DRSC29452	3	inactive
Gcna (Germ cell nuclear acidic peptidase)	DRSC18553	7	inactive
CG18545	DRSC15343	3	inactive
CG14744	DRSC06480	7	inactive
CG8389	DRSC07158	12	inactive
CG8389	DRSC22855	11	inactive
CG8389	DRSC28233	5	inactive
CG17770 + Acam	DRSC14110	14	inactive
CG17770 + Acam	DRSC15264	8	inactive
CG17770 + Acam	DRSC24252	4	inactive
CG17770 + Acam	DRSC29529	6	inactive
Mst85C	DRSC16746	7	inactive
Mst85C	DRSC26445	6	inactive
Rpp21 (Ribonuclease P/MRP subunit p21)	DRSC22480	15	inactive
Rpp21 (Ribonuclease P/MRP subunit p21)	DRSC29867	6	inactive
CG10834	DRSC03693	7	inactive
CG3610	DRSC15502	3	inactive
CG3610	DRSC27339	8	inactive
CG30020	DRSC06252	13	inactive
CG30020	DRSC06730	6	inactive
mod (modulo)	DRSC16999	3	inactive
mod (modulo)	DRSC28409	8	inactive
CG6048	DRSC18398	11	inactive
CG6048	DRSC29218	4	inactive
Mp (Multiplexin)	DRSC10193	11	inactive
Mp (Multiplexin)	DRSC11029	6	inactive
Mp (Multiplexin)	DRSC11030	5	inactive
CG31418	DRSC21780	9	inactive
CG31418	DRSC26160	7	inactive
CG31278	DRSC16051	5	inactive
CG4853	DRSC06898	8	inactive
CG4853	DRSC28240	6	inactive
CG5177	DRSC02824	3	inactive
Caper	DRSC02137	7	inactive
CG7903	DRSC16338	17	inactive
CG7903	DRSC29953	5	inactive
dgt1 (dim gamma-tubulin 1)	DRSC15301	29	active
ear (ENL/AF9-related)	DRSC15675	4	inactive
ear (ENL/AF9-related)	DRSC24291	8	inactive
CG7133	DRSC11798	6	inactive
Blos1	DRSC05970	5	inactive
TyrR (Tyramine receptor)	DRSC16242	14	inactive
CG31548	DRSC22640	4	inactive
CG31548	DRSC25763	3	inactive
elm (ethanol sensitive with low memory)	DRSC12309	7	inactive
Nrd1 (Nardilysin)	DRSC19830	9	inactive
Cpr76Bc (Cuticular protein 76Bc)	DRSC11062	9	inactive
Cpr76Bc (Cuticular protein 76Bc)	DRSC27478	11	inactive
hoe2 (hoepel2)	DRSC00459	2	inactive
Wdr59 (WD repeat domain 59)	DRSC02771	3	inactive
ND-23 (NADH dehydrogenase (ubiquinone) 23 kDa subunit)	DRSC15526	10	inactive
CG32576 + UQCR-14	DRSC19870	11	inactive
Tailor	DRSC12526	5	inactive
Rsph1 (Radial spoke head protein 1)	DRSC02864	10	inactive
Rsph1 (Radial spoke head protein 1)	DRSC26510	5	inactive
LanB1	DRSC03360	4	inactive
LanB1	DRSC27259	8	inactive
Inx2 (Innexin 2)	DRSC18783	3	inactive
Inx2 (Innexin 2)	DRSC24455	10	inactive
Vps39 (Vacuolar protein sorting 39)	DRSC16205	10	inactive
AdoR (Adenosine receptor)	DRSC16556	13	inactive
AdoR (Adenosine receptor)	DRSC28071	3	inactive
CG1663	DRSC06613	5	inactive
CG1663	DRSC22488	10	inactive
CG1663	DRSC28315	4	inactive
EbpII (Ejaculatory bulb protein II)	DRSC04637	11	inactive
EbpII (Ejaculatory bulb protein II)	DRSC22484	13	inactive
EbpII (Ejaculatory bulb protein II)	DRSC29557	2	inactive
CG14196	DRSC19551	8	inactive
CG14196	DRSC26030	3	inactive
CG33791 + CG18170	DRSC08523	11	inactive
CG33791 + CG18170	DRSC08601	6	inactive
CG33791 + CG18170	DRSC24614	3	inactive
CG14011	DRSC02343	6	inactive
CG14011	DRSC27954	8	inactive
CG18636	DRSC02685	5	inactive
CG18636	DRSC24922	4	inactive
Not1	DRSC06787	15	inactive
Not1	DRSC06794	13	inactive

17 entries from above in another layout:
CG31548 [DRSC25763]
- mitotic cells, replicate 1: 3
- Call: inactive

elm (ethanol sensitive with low memory) [DRSC12309]
- mitotic cells, replicate 1: 7
- Call: inactive

Nrd1 (Nardilysin) [DRSC19830]
- mitotic cells, replicate 1: 9
- Call: inactive

Cpr76Bc (Cuticular protein 76Bc) [DRSC11062]
- mitotic cells, replicate 1: 9
- Call: inactive

Cpr76Bc (Cuticular protein 76Bc) [DRSC27478]
- mitotic cells, replicate 1: 11
- Call: inactive

hoe2 (hoepel2) [DRSC00459]
- mitotic cells, replicate 1: 2
- Call: inactive

Wdr59 (WD repeat domain 59) [DRSC02771]
- mitotic cells, replicate 1: 3
- Call: inactive

ND-23 (NADH dehydrogenase (ubiquinone) 23 kDa subunit) [DRSC15526]
- mitotic cells, replicate 1: 10
- Call: inactive

CG32576 + UQCR-14 [DRSC19870]
- mitotic cells, replicate 1: 11
- Call: inactive

Tailor [DRSC12526]
- mitotic cells, replicate 1: 5
- Call: inactive

Rsph1 (Radial spoke head protein 1) [DRSC02864]
- mitotic cells, replicate 1: 10
- Call: inactive

Rsph1 (Radial spoke head protein 1) [DRSC26510]
- mitotic cells, replicate 1: 5
- Call: inactive

LanB1 [DRSC03360]
- mitotic cells, replicate 1: 4
- Call: inactive

LanB1 [DRSC27259]
- mitotic cells, replicate 1: 8
- Call: inactive

Inx2 (Innexin 2) [DRSC18783]
- mitotic cells, replicate 1: 3
- Call: inactive

Inx2 (Innexin 2) [DRSC24455]
- mitotic cells, replicate 1: 10
- Call: inactive

Vps39 (Vacuolar protein sorting 39) [DRSC16205]
- mitotic cells, replicate 1: 10
- Call: inactive
